Reference: the supplement of paper PMC12823440, “Inhibitors supercharge kinase turnover through native proteolytic circuits” (Nature, 2025)
Where a name gives a salt, the structure may show the parent alone. This is one part of the list. The calls rarely recur for the same compound in another form.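 Kinases, fused to nanoluciferase, were expressed in K562 cells; luminescence was measured every 4 h from 2 to 18 h as percent of control (DMSO = 100%, positive control = 0%). A time point is decreased if signal falls significantly (2 sigma). Hits were called by the authors by a rule that is not shown; the count of time points alone does not decide it.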

Chains of the proteins cited; added tags and fusions are not shown.
UniProt P50750, whole entry: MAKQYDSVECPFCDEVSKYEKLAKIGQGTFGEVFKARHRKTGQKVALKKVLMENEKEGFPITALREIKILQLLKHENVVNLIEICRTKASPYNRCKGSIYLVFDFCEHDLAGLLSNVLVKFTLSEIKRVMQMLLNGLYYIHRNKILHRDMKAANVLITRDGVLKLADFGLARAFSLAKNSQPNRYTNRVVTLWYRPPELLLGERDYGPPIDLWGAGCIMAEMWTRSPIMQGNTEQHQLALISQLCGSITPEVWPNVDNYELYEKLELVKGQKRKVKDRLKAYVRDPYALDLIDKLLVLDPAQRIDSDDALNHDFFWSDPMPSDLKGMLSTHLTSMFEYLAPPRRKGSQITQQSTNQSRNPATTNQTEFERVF

Biological target: CDK9 (UniProt P50750)
Assay: number of time points (of 4; 2 h point missing) at which kinase-Nluc abundance scored as decreased, DMSO-normalised (count); higher = more persistent destabilization
Conditions: K562, 2-18 h

**Q.** `Cc1[nH]c(/C=C2\C(=O)Nc3ccc(F)cc32)c(C)c1C(=O)NC[C@H](O)CN1CCOCC1` was tested. Which “number of time points” value (2.5 µM) did it give?
**A.** 0

**Q.** Which “number of time points” value (2.5 µM) does the source give for `C=CC(=O)N1CCC[C@@H](n2nc(-c3ccc(Oc4ccccc4)cc3)c3c(N)ncnc32)C1` [Ibrutinib] here?
**A.** 0

**Q.** Which “number of time points” value (10 µM) does the source give for `C[C@H]1CN(C2COC2)CCN1c1ccc(Nc2cc(-c3ccnc(N4CCn5c(cc6c5CC(C)(C)C6)C4=O)c3CO)cn(C)c2=O)nc1` [Fenebrutinib] here?
**A.** 0

**Q.** For `C[C@@H]1CN(C(=O)Nc2ccc(-c3nc(N4CCOCC4)c4cnn(CCCCCCC(=O)NO)c4n3)cc2)CCO1` [HDACs/mTOR Inhibitor 1], which “number of time points” value (10 µM) is on record?
**A.** 0

**Q.** How did the “number of time points” value (10 µM) turn out when `CCCCCCCCCCCCc1ccc(S(=O)(=O)Nc2nncs2)cc1` was run?
**A.** 0

**Q.** Which “number of time points” value (10 µM) does the source give for `COc1ccc(-c2c[nH]c3nccc(-c4ccsc4)c23)c(OC)c1` here?
**A.** 0

**Q.** How did the “number of time points” value (10 µM) turn out when `C[C@@]1(C(=O)Nc2ccc(F)nc2)CCCN1c1nc(Nc2cc(C3CC3)n[nH]2)c2cccn2n1` was run?
**A.** 0

**Q.** Which “number of time points” value (10 µM) does the source give for `CCCCCC1CC1CC1CC1CCCCCCCC(=O)OC` (configuration not stated) here?
**A.** 0

**Q.** `COc1cc2ncnc(Nc3ccc(F)c(Cl)c3)c2cc1OCCCN1CCOCC1` [Gefitinib] was tested. Which “number of time points” value (10 µM) did it give?
**A.** 0

**Q.** `Cc1cn(-c2cc(NC(=O)c3ccc(C)c(Nc4nccc(-c5cccnc5)n4)c3)cc(C(F)(F)F)c2)cn1` [Nilotinib] was tested. Which “number of time points” value (2.5 µM) did it give?
**A.** 2

**Q.** `COc1ccc(-c2cc3nccn3c(Nc3ncccc3C(N)=O)n2)cc1OC` [BAY 61-3606 (dihydrochloride)] was tested. Which “number of time points” value (2.5 µM) did it give?
**A.** 0

**Q.** With `Cc1ccc(-n2nc(C(C)(C)C)cc2NC(=O)Nc2ccc(OCCN3CCOCC3)c3ccccc23)cc1` [Doramapimod] as the compound, how does the “number of time points” value (10 µM) read?
**A.** 0
